The values below come from publication PMC12643519.

By UniProt entry, the sequences of proteins in these tests, tags left out.
UniProt Q6URW6: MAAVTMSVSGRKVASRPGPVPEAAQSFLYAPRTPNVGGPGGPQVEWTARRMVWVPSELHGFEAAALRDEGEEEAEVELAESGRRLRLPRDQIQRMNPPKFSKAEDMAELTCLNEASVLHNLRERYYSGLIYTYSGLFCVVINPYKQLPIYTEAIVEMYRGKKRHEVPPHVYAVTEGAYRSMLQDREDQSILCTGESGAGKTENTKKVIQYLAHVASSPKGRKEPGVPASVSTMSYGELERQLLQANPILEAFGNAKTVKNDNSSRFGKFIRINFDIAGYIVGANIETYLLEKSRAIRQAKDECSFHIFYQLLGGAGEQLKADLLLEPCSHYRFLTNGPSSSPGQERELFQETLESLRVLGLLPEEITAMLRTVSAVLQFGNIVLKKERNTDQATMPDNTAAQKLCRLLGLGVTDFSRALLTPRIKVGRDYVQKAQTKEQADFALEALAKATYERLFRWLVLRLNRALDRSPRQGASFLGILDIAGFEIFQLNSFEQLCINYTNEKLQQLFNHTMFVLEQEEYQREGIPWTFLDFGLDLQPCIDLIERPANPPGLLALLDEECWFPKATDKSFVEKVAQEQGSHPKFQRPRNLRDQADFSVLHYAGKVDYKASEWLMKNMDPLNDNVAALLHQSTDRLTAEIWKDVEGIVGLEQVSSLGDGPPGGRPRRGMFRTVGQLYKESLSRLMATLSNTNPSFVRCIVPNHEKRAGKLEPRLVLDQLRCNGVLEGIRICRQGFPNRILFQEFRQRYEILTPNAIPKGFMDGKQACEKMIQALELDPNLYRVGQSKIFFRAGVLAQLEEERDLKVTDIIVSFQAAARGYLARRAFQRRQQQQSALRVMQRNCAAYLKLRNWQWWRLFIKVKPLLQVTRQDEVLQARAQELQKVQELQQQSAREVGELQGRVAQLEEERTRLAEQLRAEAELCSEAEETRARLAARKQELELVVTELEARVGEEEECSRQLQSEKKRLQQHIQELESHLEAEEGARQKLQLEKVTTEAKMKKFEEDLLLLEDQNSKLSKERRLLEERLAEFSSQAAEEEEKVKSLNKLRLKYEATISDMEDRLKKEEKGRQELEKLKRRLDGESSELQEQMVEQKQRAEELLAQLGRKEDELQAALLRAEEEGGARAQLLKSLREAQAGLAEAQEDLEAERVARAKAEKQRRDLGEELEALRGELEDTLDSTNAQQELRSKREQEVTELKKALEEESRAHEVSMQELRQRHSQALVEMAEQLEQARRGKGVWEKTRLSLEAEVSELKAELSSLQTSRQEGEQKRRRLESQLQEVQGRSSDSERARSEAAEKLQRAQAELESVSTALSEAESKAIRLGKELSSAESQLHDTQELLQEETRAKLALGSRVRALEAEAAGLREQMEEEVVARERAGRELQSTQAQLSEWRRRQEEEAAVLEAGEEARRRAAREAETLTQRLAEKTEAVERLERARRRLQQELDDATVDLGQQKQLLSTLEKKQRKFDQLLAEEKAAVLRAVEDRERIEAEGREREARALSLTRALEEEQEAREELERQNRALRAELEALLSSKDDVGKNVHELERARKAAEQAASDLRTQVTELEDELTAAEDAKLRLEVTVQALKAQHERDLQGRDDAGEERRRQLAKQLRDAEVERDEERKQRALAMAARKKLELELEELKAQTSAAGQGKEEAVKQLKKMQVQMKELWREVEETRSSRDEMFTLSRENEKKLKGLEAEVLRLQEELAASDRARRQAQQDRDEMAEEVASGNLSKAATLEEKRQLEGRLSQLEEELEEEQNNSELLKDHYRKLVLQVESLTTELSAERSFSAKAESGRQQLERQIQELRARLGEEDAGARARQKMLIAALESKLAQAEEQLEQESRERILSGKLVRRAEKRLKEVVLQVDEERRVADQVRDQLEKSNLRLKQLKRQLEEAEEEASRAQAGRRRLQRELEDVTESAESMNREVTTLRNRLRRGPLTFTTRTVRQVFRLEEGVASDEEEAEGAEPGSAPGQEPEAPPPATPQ

The assay addresses T1, SEPT9-mNeonGreen (mouse (endogenous in colonic epithelial cells of knockin mice)) (UniProt Q80UG5).
T1 sequence: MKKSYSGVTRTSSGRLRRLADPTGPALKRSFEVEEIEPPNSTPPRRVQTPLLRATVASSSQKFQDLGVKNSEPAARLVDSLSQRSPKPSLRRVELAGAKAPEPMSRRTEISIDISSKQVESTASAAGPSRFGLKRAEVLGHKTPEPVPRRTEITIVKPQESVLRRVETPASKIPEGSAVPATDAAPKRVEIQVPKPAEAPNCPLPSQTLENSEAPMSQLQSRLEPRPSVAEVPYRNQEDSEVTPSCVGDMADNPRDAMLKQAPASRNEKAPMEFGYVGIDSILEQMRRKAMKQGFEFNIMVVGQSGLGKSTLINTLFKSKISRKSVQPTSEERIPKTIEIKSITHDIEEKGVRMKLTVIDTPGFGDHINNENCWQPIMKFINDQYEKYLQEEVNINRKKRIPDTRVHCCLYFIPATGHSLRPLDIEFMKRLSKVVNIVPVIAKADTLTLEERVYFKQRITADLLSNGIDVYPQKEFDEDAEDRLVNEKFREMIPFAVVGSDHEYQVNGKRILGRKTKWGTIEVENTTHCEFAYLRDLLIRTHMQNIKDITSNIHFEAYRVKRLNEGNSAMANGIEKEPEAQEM
The assay can be described thus: co-IP; mouse colonic epithelial cells of SEPT9^mNG knockin mice isolated, lysed and incubated with anti-mNeonGreen-conjugated magnetic beads; immunoblot; SEPT9^fl/fl mice as control.

No constants are given. Whether binding was seen depends on the method and setting. Binding seen in cells or lysates may run through a third protein. Some entries that bind do so weakly or less than the wild type.

Regarding “nonmuscle myosin IIC (mouse) (from UniProt Q6URW6 1-2000)”, the binding result was “binds”.

B1: SEPT7 (protein, UniProt O55131 1-436)
chain: MSVSARSAAAEERSVNCGTMAQPKNLEGYVGFANLPNQVYRKSVKRGFEFTLMVVGESGLGKSTLINSLFLTDLYSPEYPGPSHRIKKTVQVEQSKVLIKEGGVQLLLTIVDTPGFGDAVDNSNCWQPVIDYIDSKFEDYLNAESRVNRRQMPDNRVQCCLYFIAPSGHGLKPLDIEFMKRLHEKVNIIPLIAKADTLTPEECQQFKKQIMKEIQEHKIKIYEFPETDDEEENKLVKKIKDRLPLAVVGSNTIIEVNGKRVRGRQYPWGVAEVENGEHCDFTILRNMLIRTHMQDLKDVTNNVHYENYRSRKLAAVTYNGVDNNKNKGQLTKSPLAQMEEERREHVAKMKKMEMEMEQVFEMKVKEKVQKLKDSEAELQRRHEQMKKNLEAQHKELEEKRRQFEEEKANWEAQQRILEQQNSSRTLEKNKKKGKIF
As to B1, the binding entry is “binds”.
